Test results published in the supplement of paper PMC10849652.
Some of the results follow.

The chains behind the UniProt entries cited, without tags or fusion partners. Where a name states a change or a piece, a line headed by the entry shows the natural chain unless it says otherwise.
UniProt Q02086: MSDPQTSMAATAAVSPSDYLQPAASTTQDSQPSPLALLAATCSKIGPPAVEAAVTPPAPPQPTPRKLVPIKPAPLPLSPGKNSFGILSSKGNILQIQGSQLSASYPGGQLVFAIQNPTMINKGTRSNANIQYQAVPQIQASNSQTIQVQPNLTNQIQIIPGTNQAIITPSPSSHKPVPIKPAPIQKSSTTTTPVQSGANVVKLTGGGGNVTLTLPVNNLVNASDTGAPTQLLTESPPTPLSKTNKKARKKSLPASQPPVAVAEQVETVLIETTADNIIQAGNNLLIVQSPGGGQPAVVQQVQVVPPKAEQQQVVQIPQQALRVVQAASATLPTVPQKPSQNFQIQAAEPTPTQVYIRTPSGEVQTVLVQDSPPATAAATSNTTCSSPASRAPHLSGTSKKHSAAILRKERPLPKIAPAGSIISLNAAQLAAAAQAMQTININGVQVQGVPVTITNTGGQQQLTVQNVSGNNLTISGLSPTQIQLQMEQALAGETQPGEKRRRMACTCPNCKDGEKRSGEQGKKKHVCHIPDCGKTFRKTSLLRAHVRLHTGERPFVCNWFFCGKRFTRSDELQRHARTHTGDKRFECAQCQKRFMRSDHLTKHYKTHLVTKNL
UniProt Q9NXE4: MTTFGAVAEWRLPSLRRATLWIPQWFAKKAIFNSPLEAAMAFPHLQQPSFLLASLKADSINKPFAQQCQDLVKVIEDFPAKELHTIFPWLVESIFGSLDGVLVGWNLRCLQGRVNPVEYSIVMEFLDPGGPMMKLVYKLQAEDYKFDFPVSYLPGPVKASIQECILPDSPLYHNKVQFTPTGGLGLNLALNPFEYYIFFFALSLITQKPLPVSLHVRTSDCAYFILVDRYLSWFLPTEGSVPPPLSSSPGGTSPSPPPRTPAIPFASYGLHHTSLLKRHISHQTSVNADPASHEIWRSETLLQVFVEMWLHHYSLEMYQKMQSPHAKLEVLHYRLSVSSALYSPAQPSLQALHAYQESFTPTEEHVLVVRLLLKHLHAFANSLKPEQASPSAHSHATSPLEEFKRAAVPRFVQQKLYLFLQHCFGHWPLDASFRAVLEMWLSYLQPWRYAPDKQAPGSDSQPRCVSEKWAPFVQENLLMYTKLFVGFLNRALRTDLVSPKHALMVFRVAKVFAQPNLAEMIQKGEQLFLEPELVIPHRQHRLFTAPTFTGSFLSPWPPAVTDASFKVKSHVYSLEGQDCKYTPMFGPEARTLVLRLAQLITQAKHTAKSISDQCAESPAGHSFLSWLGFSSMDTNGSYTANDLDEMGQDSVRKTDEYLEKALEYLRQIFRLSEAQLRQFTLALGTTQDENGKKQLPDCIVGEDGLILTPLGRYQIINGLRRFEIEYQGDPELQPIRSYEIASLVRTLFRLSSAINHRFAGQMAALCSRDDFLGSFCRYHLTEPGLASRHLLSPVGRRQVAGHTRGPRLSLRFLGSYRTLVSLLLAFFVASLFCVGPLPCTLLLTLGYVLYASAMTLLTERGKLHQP
UniProt Q9BT81: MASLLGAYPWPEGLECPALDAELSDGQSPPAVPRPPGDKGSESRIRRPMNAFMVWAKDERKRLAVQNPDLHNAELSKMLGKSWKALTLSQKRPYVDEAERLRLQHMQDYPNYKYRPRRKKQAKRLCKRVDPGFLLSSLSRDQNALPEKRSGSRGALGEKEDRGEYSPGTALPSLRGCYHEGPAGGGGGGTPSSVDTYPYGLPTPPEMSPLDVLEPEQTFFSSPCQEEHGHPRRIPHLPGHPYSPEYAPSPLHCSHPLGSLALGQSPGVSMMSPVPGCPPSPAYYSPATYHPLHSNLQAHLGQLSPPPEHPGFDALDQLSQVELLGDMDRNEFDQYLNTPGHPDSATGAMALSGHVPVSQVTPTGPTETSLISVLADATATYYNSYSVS
UniProt Q9BV90: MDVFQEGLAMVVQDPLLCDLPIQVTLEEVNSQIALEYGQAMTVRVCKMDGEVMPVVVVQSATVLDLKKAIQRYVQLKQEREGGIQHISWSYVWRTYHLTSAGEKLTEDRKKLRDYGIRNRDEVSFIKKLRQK
UniProt Q15506: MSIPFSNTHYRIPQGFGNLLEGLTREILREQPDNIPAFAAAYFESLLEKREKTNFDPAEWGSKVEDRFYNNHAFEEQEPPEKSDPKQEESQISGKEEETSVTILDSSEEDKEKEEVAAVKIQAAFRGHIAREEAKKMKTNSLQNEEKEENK
UniProt O94964: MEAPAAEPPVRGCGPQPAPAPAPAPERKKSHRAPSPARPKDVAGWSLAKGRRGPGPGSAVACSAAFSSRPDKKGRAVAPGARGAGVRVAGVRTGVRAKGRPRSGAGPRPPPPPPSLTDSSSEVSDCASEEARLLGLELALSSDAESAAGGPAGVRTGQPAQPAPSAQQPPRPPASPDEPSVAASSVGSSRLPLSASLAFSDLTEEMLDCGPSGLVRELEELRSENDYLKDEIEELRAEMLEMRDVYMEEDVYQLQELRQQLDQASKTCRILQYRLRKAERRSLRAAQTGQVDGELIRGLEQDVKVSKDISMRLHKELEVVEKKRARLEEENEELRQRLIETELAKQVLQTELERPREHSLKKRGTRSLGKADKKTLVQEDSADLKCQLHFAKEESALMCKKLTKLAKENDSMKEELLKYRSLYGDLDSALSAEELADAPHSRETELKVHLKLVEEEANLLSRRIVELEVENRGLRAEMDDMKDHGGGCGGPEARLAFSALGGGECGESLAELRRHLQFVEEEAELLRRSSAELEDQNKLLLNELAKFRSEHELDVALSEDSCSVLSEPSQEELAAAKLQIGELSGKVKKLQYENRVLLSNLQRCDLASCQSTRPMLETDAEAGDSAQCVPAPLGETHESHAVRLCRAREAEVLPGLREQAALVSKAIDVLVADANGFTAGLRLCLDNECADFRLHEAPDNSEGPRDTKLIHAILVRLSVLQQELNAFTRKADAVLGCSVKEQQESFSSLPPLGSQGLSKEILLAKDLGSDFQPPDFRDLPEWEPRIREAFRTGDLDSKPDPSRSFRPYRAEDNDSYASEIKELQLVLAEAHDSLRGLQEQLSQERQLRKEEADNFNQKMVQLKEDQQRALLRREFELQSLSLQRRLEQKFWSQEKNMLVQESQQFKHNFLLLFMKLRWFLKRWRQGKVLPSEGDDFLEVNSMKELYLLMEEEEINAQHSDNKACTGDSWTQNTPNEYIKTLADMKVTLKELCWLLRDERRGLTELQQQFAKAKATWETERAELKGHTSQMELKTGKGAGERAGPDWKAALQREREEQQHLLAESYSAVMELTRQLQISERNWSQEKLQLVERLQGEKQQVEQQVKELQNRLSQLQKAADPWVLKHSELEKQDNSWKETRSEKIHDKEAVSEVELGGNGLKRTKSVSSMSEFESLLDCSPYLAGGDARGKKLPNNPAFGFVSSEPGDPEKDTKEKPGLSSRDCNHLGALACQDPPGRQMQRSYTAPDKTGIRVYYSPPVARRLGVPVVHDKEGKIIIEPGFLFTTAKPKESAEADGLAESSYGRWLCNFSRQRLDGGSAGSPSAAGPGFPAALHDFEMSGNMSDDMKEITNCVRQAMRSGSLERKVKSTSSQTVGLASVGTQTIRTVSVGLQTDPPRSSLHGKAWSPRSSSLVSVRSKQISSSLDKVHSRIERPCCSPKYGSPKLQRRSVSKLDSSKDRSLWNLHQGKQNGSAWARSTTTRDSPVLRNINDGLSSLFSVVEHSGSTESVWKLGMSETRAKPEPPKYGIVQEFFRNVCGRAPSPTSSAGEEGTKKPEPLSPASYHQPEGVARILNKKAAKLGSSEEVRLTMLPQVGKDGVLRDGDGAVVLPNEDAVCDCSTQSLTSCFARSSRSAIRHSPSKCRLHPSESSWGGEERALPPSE
UniProt Q5SXM2: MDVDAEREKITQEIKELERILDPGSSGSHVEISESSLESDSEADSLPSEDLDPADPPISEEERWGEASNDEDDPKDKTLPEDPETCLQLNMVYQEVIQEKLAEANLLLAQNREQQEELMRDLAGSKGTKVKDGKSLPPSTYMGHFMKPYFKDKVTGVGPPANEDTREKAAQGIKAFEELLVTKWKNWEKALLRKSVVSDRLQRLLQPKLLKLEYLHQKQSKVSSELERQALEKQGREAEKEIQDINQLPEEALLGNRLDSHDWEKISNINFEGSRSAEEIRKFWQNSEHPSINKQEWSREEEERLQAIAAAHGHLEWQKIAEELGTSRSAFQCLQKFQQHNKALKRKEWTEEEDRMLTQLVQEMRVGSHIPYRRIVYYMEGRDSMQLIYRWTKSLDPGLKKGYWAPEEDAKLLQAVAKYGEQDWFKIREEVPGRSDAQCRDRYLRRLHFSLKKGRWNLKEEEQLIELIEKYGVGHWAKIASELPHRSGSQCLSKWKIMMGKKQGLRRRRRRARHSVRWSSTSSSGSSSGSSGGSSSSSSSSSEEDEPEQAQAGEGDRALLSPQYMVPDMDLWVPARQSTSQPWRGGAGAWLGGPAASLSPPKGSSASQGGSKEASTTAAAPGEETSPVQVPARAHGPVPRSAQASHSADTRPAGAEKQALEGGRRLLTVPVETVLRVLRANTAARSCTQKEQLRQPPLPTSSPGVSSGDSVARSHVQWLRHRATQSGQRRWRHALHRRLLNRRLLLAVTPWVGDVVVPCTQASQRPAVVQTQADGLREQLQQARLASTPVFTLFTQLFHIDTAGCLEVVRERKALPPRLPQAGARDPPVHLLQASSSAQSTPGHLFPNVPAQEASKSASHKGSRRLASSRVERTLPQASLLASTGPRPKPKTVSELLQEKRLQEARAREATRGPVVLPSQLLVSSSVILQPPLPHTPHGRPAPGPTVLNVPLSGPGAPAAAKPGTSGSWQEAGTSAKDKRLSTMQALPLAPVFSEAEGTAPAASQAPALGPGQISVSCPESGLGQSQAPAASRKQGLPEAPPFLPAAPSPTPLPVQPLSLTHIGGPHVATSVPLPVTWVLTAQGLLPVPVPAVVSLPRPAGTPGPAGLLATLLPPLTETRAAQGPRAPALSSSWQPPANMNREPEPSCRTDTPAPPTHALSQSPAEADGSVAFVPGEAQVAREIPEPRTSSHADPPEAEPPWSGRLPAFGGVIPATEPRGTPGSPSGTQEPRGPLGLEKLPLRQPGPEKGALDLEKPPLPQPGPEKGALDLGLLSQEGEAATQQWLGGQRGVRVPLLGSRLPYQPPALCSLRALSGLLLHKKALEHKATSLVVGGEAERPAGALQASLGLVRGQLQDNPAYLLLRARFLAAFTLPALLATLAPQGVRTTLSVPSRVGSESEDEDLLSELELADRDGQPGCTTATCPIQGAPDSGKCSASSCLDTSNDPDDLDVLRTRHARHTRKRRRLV

Columns and labels:
Assay in all cases: log2 fold change, soluble protein after heating vs DMSO (PISA); higher = thermal stabilisation; K562 lysate, 10 uM; active = over 0.2 and 3.5 SD of the protein, either way, in both replicates (recomputed)
ibrutinib = compound: C=CC(=O)N1CCC[C@@H](n2nc(-c3ccc(Oc4ccccc4)cc3)c3c(N)ncnc32)C1 [ibrutinib]
How it was run: (§1)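 Soluble protein was defined as the supernatant remaining after 21,000xg for 90 min, following pooling of heated aliquots and adjustment to 0.5% NP-40 at 4°C. Before that, crude K562 extract at 1 mg/mL protein in PBS pH 7.4 with 1 mM MgCl2 was treated with 10 μM compound for 30 min and heated for 3 min across 48°C-58°C. Quantification used TMTpro 16plex LC-MS/MS with channel sums equalised, and values are log-two fold changes in thermal stability relative to solvent controls from duplicates.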

[1] = compound: CC1=C(C(CC(=O)N1)C2=CC=C(C=C2)C(F)(F)F)C(=O)NC3=C(C=C4C(=C3)C=NN4)F
How it was run: as §1

[2] = compound: CC1=C(C2=C(C=C1)C(=O)C3=CC=CC=C3N2CCCN)C
How it was run: as §1

[3] = compound: CC1=C(C=C(C=C1)NC(=O)C2=CC(=CC=C2)C(C)(C)C#N)NC3=CC4=C(C=C3)N=CN(C4=O)C
How it was run: as §1

barasertib = compound: CCN(CCCOc1ccc2c(Nc3cc(CC(=O)Nc4cccc(F)c4)[nH]n3)ncnc2c1)CCOP(=O)(O)O [barasertib]
How it was run: as §1

[4] = compound: CC[C@@H]1C(=O)N(C)c2cnc(Nc3ccc(C(=O)NC4CCN(C)CC4)cc3OC)nc2N1C1CCCC1
How it was run: as §1

saracatinib = compound: CN1CCN(CCOc2cc(OC3CCOCC3)c3c(Nc4c(Cl)ccc5c4OCO5)ncnc3c2)CC1 [saracatinib]
How it was run: as §1

sotrastaurin = compound: CN1CCN(c2nc(C3=C(c4c[nH]c5ccccc45)C(=O)NC3=O)c3ccccc3n2)CC1 [sotrastaurin]
How it was run: as §1

ralimetinib = compound: CC(C)(C)Cn1c(N)nc2ccc(-c3[nH]c(C(C)(C)C)nc3-c3ccc(F)cc3)nc21 [ralimetinib]
How it was run: as §1

[5] = compound: CC(C)(O)CC(=O)NCCn1ccc2ncnc(Nc3ccc(Oc4cccc(C(F)(F)F)c4)c(Cl)c3)c21
How it was run: as §1

[6] = compound: CC1=C(C=C(C=C1)NC(=O)C2=CC(=CC=C2)N(C)C)NC(=O)C3=CC=C(C=C3)O
How it was run: as §1

vemurafenib = compound: CCCS(=O)(=O)Nc1ccc(F)c(C(=O)c2c[nH]c3ncc(-c4ccc(Cl)cc4)cc23)c1F [vemurafenib]
How it was run: as §1

[7] = compound: CCn1c(C(=O)N(C2CC2)C2CC2)cc2c3c(ncn3C)c(Nc3cc(C)n(C)n3)nc21
How it was run: as §1

[8] = compound: CCn1cc(-c2ccnc3[nH]c(-c4cccc(CN(C)C)c4)cc23)c(-c2ccc(NC(=O)N(C)C)cc2)n1
How it was run: as §1

[9] = compound: CN1CCC(CNc2ccc3ncc(-c4cccc(OC(F)(F)F)c4)n3n2)CC1
How it was run: as §1

[10] = compound: CC(C)C1=C2N=C(C=C(N2N=C1)NCC3=CC=CC=C3)NCCCCCCN
How it was run: as §1

[11] = compound: CC(=O)c1cnc2ccc(-c3cc(Cl)c(O)c(Cl)c3)nc2c1N[C@H]1CC[C@H](CN(C)C)CC1
How it was run: as §1

[12] = compound: CC1=CC=C(C=C1)SC2=C3C=C(SC3=CN=C2)C(=O)N
How it was run: as §1

[13] = compound: CCCS(=O)(=O)Nc1ccc(F)c(C(=O)c2c[nH]c3ncc(Cl)cc23)c1F
How it was run: as §1

volasertib = compound: CC[C@@H]1C(=O)N(C)c2cnc(Nc3ccc(C(=O)N[C@H]4CC[C@H](N5CCN(CC6CC6)CC5)CC4)cc3OC)nc2N1C(C)C [volasertib]
How it was run: as §1

| Target | log2 fold change (ibrutinib) | log2 fold change [1] | log2 fold change [2] | log2 fold change [3] | log2 fold change (barasertib) | log2 fold change [4] | log2 fold change (saracatinib) | log2 fold change (sotrastaurin) | log2 fold change (ralimetinib) | log2 fold change [5] | log2 fold change [6] | log2 fold change (vemurafenib) | log2 fold change [7] | log2 fold change [8] | log2 fold change [9] | log2 fold change [10] | log2 fold change [11] | log2 fold change [12] | log2 fold change [13] | log2 fold change (volasertib) |
| --- | --- | --- | --- | --- | --- | --- | --- | --- | --- | --- | --- | --- | --- | --- | --- | --- | --- | --- | --- | --- |
| SP2 (UniProt Q02086) | inactive: 0.096 | inactive: 0.089 | inactive: -0.022 | inactive: 0.033 | inactive: 0.083 | inactive: 0.098 | inactive: -0.13 | inactive: 0 |  |  |  |  |  |  |  |  |  |  |  |  |
| SMPD4 isoform 4 (UniProt Q9NXE4) | inactive: 0.026 | inactive: 0.003 |  |  | inactive: 0.047 | inactive: -0.145 |  |  | inactive: -0.047 | inactive: 0.641 | inactive: 0.068 | inactive: -0.033 | inactive: 0.062 | inactive: 0.078 | inactive: -0.018 |  |  |  |  |  |
| SOX7 isoform 2 (UniProt Q9BT81) | inactive: 0.101 | inactive: 0.108 |  |  | inactive: -0.04 |  |  |  | inactive: -0.057 | inactive: -0.069 | inactive: -0.094 | inactive: -0.013 | inactive: 0.114 | inactive: 0.238 | inactive: -0.081 | inactive: 0.013 |  |  |  |  |
| SMU1 isoform 2 (UniProt Q2TAY7) | inactive: 0.008 | inactive: -0.183 |  |  | inactive: 0.035 | inactive: 0.089 |  |  | inactive: -0.054 | inactive: -0.099 | inactive: -0.082 | inactive: 0.189 | inactive: -0.127 | inactive: -0.399 | inactive: 0.136 | inactive: -0.138 | inactive: 0.012 | inactive: -0.05 | inactive: 0.147 | inactive: 0.092 |
| SNRNP25 (UniProt Q9BV90) | inactive: 0.014 | inactive: -0.098 |  |  | inactive: -0.005 |  |  |  | inactive: -0.084 | inactive: 0.016 | inactive: -0.07 |  | inactive: 0.014 |  |  |  |  |  |  |  |
| SPA17 (UniProt Q15506) | inactive: 0.056 |  | inactive: 0.051 | inactive: -0.053 | inactive: 0.021 | inactive: 0.005 | inactive: 0.004 | inactive: 0.021 | inactive: 0.006 | inactive: -0.098 | inactive: 0.026 | inactive: -0.013 | inactive: 0.022 | active: -0.639 | inactive: 0.245 |  | inactive: 0.028 | inactive: -0.058 | inactive: -0.004 | inactive: 0.09 |
| SOGA1 isoform 2 (UniProt O94964) | inactive: -0.055 | inactive: 0.029 | inactive: -0.028 | inactive: 0.027 | inactive: 0.069 | inactive: -0.123 | inactive: -0.002 | inactive: -0.004 | inactive: 0.022 | inactive: 0.014 | inactive: 0.007 | inactive: -0.022 | inactive: -0.003 | inactive: -0.025 | inactive: -0.262 | inactive: 0.038 |  |  |  |  |
| SNAPC4 (UniProt Q5SXM2) | inactive: 0.06 | inactive: 0.039 |  |  | inactive: 0.02 | inactive: -0.043 |  |  |  |  |  | inactive: 0.086 |  | inactive: 0.002 | inactive: -0.082 |  |  |  |  |  |
